# Results are given in words; binding and its absence hold for the method and conditions named. Binding seen in cells or lysates may run through a third protein. Some binding calls cover weakened binding; strength is not graded here.
# Protein sequences, listed by entry. Tags and fused reporters are not part of them. Lines headed by an entry give the natural chain unless they say otherwise; changes in a name come on top. Residues count along the entry.
# UniProt P45975: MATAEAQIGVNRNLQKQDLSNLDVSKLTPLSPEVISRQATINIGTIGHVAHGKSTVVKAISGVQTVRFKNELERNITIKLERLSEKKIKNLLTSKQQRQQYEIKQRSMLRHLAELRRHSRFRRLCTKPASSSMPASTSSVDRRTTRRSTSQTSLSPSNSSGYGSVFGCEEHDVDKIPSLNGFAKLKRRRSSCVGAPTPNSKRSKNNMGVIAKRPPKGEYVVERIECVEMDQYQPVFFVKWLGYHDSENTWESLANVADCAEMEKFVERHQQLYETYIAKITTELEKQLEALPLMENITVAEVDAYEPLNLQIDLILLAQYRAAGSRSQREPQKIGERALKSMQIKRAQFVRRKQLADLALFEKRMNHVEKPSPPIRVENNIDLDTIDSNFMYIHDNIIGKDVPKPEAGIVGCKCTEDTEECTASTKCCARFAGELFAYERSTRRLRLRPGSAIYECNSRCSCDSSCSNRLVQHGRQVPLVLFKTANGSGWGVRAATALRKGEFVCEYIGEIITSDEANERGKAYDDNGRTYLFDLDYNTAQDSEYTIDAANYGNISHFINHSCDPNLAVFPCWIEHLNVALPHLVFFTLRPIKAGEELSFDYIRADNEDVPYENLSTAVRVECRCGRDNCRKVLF
# GST SU(VAR)3-9 NT (aa 1–152): residues 1-152 of P45975
# UniProt P19109: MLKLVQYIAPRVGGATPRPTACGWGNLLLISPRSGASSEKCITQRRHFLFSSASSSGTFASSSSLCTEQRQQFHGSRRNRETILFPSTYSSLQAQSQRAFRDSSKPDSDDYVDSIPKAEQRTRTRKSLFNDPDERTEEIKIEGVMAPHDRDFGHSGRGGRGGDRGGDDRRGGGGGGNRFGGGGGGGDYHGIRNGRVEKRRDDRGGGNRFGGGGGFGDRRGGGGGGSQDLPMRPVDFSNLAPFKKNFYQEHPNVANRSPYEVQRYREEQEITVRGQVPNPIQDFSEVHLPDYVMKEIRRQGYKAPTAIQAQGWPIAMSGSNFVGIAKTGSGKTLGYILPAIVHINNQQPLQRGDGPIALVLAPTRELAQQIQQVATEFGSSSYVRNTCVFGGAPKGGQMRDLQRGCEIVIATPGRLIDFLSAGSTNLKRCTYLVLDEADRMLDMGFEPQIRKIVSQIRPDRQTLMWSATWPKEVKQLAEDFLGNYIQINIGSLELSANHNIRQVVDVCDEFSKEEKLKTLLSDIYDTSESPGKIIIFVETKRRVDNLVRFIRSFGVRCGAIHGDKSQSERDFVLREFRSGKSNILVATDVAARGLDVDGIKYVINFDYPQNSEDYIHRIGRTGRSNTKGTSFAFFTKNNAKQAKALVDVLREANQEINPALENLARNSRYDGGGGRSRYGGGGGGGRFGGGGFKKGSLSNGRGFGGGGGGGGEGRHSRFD
# What was measured:
# [1] = target: GST SU(VAR)3-9 NT (aa 1–152) (Drosophila melanogaster) (UniProt P45975); experiment: pull-down; GST fusion proteins on glutathione-sepharose beads incubated with [35S]-methionine-labeled in vitro translated proteins; 100 mM NaCl, 20 mM Tris-HCl pH 8.0, 1 mM EDTA, 0.5% Nonidet P-40, ethidium bromide, BSA; 0.5 h at room temperature; autoradiography; only the target purified
# [2] = target: GST-Rm62 (Drosophila melanogaster) (UniProt P19109); experiment: as above
# [3] = target: Rm62 (endogenous, SL2 cell nuclear extract) (Drosophila melanogaster (endogenous in SL2 cells)) (UniProt P19109); experiment: co-IP; nuclear extract of copper-induced HA-SU(VAR)3-9 SL2 cells; anti-Rm62 antibody 1E7 or IgG2c isotype control, Protein A/G Sepharose, 4°C; wash BC-300 (300 mM NaCl) with 0.1% NP-40; western blot
Substance,binding [1],binding [2],binding [3]
"Rm62, in vitro translated (from UniProt P19109 1-719)",binds,binds,–
"SU(VAR)3-9, in vitro translated (from UniProt P45975 1-635)",–,binds,–
HA-SU(VAR)3-9 (from UniProt P45975 1-635),–,–,binds

# From PMC3107242
